Paper PMC10733312

By UniProt entry, the sequences of proteins in these tests, tags left out.
UniProt P19474: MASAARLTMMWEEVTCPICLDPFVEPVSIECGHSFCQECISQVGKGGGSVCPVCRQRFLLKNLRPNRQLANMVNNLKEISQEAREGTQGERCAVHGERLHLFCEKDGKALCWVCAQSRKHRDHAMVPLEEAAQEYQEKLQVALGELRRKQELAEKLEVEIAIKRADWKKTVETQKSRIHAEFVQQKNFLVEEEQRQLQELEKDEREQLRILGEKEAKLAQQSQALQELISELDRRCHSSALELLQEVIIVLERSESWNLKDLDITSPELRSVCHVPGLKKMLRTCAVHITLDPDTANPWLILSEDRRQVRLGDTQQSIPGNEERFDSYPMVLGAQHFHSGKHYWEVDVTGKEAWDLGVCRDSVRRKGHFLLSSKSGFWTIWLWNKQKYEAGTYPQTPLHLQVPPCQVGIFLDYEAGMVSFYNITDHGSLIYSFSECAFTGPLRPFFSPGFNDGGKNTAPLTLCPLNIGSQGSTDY

Target: T1, Flag-Sohlh2 (UniProt Q9NX45)
T1 sequence: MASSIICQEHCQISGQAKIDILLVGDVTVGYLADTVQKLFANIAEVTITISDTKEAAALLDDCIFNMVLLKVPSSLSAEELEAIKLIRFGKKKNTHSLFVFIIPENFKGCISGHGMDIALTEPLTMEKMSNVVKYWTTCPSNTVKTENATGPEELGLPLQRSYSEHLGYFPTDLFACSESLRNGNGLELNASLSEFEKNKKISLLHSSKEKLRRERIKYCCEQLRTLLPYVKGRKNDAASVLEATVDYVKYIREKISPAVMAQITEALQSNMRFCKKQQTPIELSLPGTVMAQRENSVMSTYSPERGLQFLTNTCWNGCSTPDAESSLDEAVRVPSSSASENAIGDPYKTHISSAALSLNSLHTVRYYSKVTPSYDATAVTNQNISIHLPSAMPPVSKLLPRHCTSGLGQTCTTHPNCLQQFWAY
Test: affinity purification with mass spectrometry; Coomassie-stained SDS-PAGE gel lanes sliced into bands, binding proteins measured by mass spectrometry (Maxis II); bait and cells not stated for this experiment

**Q.** For “E3 ubiquitin ligase TRIM21 (from UniProt P19474 1-475) (enzyme)”, which binding is on record?
**A.** binds

These are yes or no findings as the source states them, for the method shown. Binding seen in cells or lysates may run through a third protein. These calls come from enrichment with a bait or labelling near it, and not all partners need be listed. Sequences can lack the tags named with a protein.
